# Source: PubChem BioAssay AID1347423 (Functional Genomics Laboratory (NCATS/FGL), 2020)
# Hit rate of the full screen: of about 52,000 sequences, about 210 (0.4%) were called active.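 How the source made its calls: active means gene whose silencing raises cell survival under the drug, median off-target-corrected z-score across its silencing RNAs 2 or more; inactive means the rest.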 The list shows a part of the results.
# Test: Resistance to Poly (ADP-Ribose) Polymerase inhibitor: Gene Identification via Genome-wide siRNA Screen
# Conditions: mouse BRCA2 R2336H ES cells, olaparib, CellTiter-Glo viability; hits give high values
# Summary of the method: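 Mouse BRCA2 R2336H ES cells were reverse-transfected with siRNA (20 nM final), treated at 48 h with 500 nM olaparib, and read by CellTiter-Glo after 72 h. Scores: MAD-based z per siRNA, median per gene, seed off-target correction.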
row,Sequence,z-score
1,CCGAAGAUGUUCCUCGGAATT against Rpl6,inactive: -3.32
2,GGAGAAUGAGAUUGAGUGUTT against Rnf144,inactive: 0.159
3,GCUUUAUUUUUUCCACCUUTT against Olfr106,inactive: -0.481
4,GGAAAAGAUCUGUUUCUCATT against Mucdhl,inactive: 0.892
5,CCAACGCGAACGAGAACUATT against C1qb,inactive: -1.3
6,GGCUUUAACCGCAUCAUAGTT against G6pd2,inactive: -1.37
7,CCUCGGAUAACGAAGCUAATT against Hoxc10,inactive: -0.368
8,GCAAUUACCUGGUUUAAUGTT against Ptdsr,inactive: 0.961
9,GGGCCAUGCUAACCCUUAATT against 2200002K05Rik,inactive: -3.08
10,GGAAAGGGUCUGUUUUACUTT against 2810002I04Rik,inactive: 1.45
11,GGCAGCUGGAAAGACAAAATT against Snca,inactive: 0.0268
12,GGAUGCCAAUUACUUUCUATT against Chst9,inactive: 0.366
13,GCAUCACAAAUAUGCUUCUTT against Tas2r120,inactive: -0.535
14,GGAAGGAGAAAAUGGAACUTT against Il12rb2,inactive: -2.49
15,GGGUUUUCUUACAAAGAACTT against Hoxb2,inactive: 0.803
16,GGCUAAAGAAUGUUAUCAGTT against Ttc12,inactive: -0.0715
17,GGAACAUGAAGUGGAAAAATT against Vps33a,inactive: -0.369
18,GGAAUAAGGAGCUGAAGAATT against Olfr63,inactive: -2.3
19,GGACUACCAAUACGAACUGTT against Il23a,inactive: 0.547
20,GGAAAGGACAAGAAAAUUUTT against Strn,inactive: 1.08
21,GGGCAUGCAUAGCUACUAUTT against Tmprss6,inactive: -1.38
22,GGAGAUCACCUACGACAUGTT against Lgals8,inactive: -1.23
23,GGUCAAGUCACUGCUUGAATT against 2010005H15Rik,inactive: -0.396
24,GGAAGAAAGCAGAACAAGGTT against Armcx3,inactive: 0.35
25,GGUUCCUAGAUAAGAUUCGTT against Itm2b,inactive: 1.58
26,GCGGUGGUUAUCCUAGAAATT against Hivep2,inactive: -0.0386

row,Sequence,z-score
1,GGAGAAAGGAACUGAAAGUTT against D430026P16Rik,inactive: -0.591
2,GGCUCUACCACAAGAAGGUTT against 2310020H20Rik,inactive: -1.88
3,GCUGCUAGCAAAAAGAACUTT against Yaf2,inactive: 0.285
4,GGAUCAGAACACUUUGGCATT against Leng5,inactive: -0.908
5,GGUGAGGAUUUAUUUGAAGTT against Fkbp5,inactive: 0.0901
6,GGGCUGGGUCUUCAUAAUUTT against 6330549D23Rik,inactive: -0.191
7,GGAACCUAACCUAAGUAGUTT against B530045E10Rik,inactive: 0.516
8,GGAUGACUACAAAUGCAAATT against E230015B07Rik,inactive: 0.67
9,GGGACUUUAGAUGAAAAAATT against 5430404L10Rik,inactive: -0.058
10,GGAGCUGAUAGGACUGAUGTT against 1110031B06Rik,inactive: 0.0234
11,GGCCGUACCUUUAACUGGATT against Tex101,inactive: -1.28
12,CCUGUGUAUUCCUAAAUUGTT against Wdr41,inactive: 0.988
13,CCGGAGGUUUAGAAGAGGATT against 4930534B04Rik,inactive: 0.244
14,GGAAGUGAAGAGAUCCUUATT against Olfr148,inactive: 1.22
15,GCGUGAGUCCCUAUAUGAATT against 2300008B03Rik,inactive: 1.28
16,GGAAAAUCACUUCAUUCACTT against Ltk,inactive: 0.264
17,GGUUUAAGCUUUUUGUGGATT against D130079A08Rik,inactive: 0.808
18,GGAAGGAUUCUGGAAACAGTT against 2210409E12Rik,inactive: -0.14
19,GCUCACAAGGUACCUAUUATT against Frmd3,inactive: -1.6
20,GGACUUAAGGCCCUUUUUGTT against Elovl3,inactive: -0.378
21,GGGAAGAGGAUAGGAUUCGTT against 2310079N02Rik,inactive: 2.88
22,GGACUUCACUUUUCUAUGATT against 9630015D15Rik,inactive: 0.243
23,GGAGAUGGAUGAUAUGGAGTT against Ifi30,inactive: 1.29
24,CGUUGUUUAUUCCAAAGAGTT against Runx1,inactive: 0.209
25,GCCUUUUGACGCAAAAACATT against Myh8,inactive: 1.39
26,GGAUCAACAGUCAAUUGUGTT against Tax1bp1,inactive: -1.81

# Copied from above for reference:
row,Sequence,z-score
11,GGCCGUACCUUUAACUGGATT against Tex101,inactive: -1.28
12,CCUGUGUAUUCCUAAAUUGTT against Wdr41,inactive: 0.988
13,CCGGAGGUUUAGAAGAGGATT against 4930534B04Rik,inactive: 0.244
14,GGAAGUGAAGAGAUCCUUATT against Olfr148,inactive: 1.22
15,GCGUGAGUCCCUAUAUGAATT against 2300008B03Rik,inactive: 1.28
16,GGAAAAUCACUUCAUUCACTT against Ltk,inactive: 0.264

# (continued)

row,Sequence,z-score
1,GGAAAGAAGAAACAUUCCUTT against Socs5,inactive: 0.2
2,GAAUAUUGCUCAGUGCAAGTT against 1110021N19Rik,inactive: 0.456
3,GGGAGUUAACAAAAACAUATT against 6030405P05Rik,inactive: 1.25
4,GGGUUUUUGAUGAUGAUUCTT against Htatsf1,inactive: -2.02
5,CGGGAUCUUCACUCUCUGATT against Timd4,inactive: -1.62
6,GGAUAAAAGCAUUUGAGUCTT against Acp1,inactive: 0.454
7,GGAAGGUAAAUGUCUGCUCTT against Selk,inactive: 0.809
8,GGGAAAGGAUAAAGAUUUUTT against Hmgcs1,inactive: -0.388
9,GGAGAAAGCCUUCCAAUUUTT against Kel,inactive: 0.517
10,GCUCCCUACUUUACAUAAATT against Vmd2l3,inactive: -0.737
11,GCUGUUGGUCUGAUAGCUUTT against Hadhb,inactive: 0.258
12,CCAGCCAAGACUAAGAAACTT against Mbd1,inactive: -0.579
13,GGGUAUUGAGUUCAAAAUUTT against Dld,inactive: -1.38
14,AGAAUCUUUAAAGGAAGUCTT against Olfr325,inactive: -0.796
15,CGAUAGACCAAAUUUUAUGTT against Trim37,inactive: 1.05
16,GGACAAGAAACAGCUGUCATT against D5Ertd593e,inactive: -1.88
17,GGAGAAAUACUCAGAAAUGTT against 4933405K18Rik,inactive: 0.236
18,GGAAUAUUAUCUGAUCUGUTT against Abca4,inactive: -0.169
19,GGAGACAAUAUGGGACAUGTT against Ddb2,inactive: -0.235
20,GCUGGUUGUAGUAAAACAGTT against 2810474O19Rik,inactive: -0.745
21,GCUGCUCAAGAUCAUUUGATT against 1700010C24Rik,inactive: -0.205
22,GCGAGUUCGAUUGCUUCUCTT against Cited4,inactive: -0.534
23,GGAAGGAACUCAAGAAGACTT against Ifrd1,inactive: 0.283
24,GGUGAUUCCAUUACCUAGUTT against E430028B21Rik,inactive: 0.655
25,GGACUUAGUGUGGAAAAGATT against Ddah2,inactive: -0.285
26,GGAAAGCUGGUGAUGCUCGTT against A430107D22Rik,inactive: 0.391

row,Sequence,z-score
1,GGGCCUUCACAAUGUCCUUTT against Brca1,inactive: -1.64
2,CGUGAUGAAUGAGAAUAACTT against Maea,inactive: 0.329
3,GCUGUAUUAUGUAGCUUCUTT against Ddx27,inactive: 0.203
4,GGUCUCUUUUUGUUUCCUUTT against Ctf1,inactive: 0.628
5,GCUGCCAACGAAGAUGAGCTT against Casc1,inactive: 0.464
6,GGUUACCUAGAAGUGGACUTT against Igsf6,inactive: -0.891
7,GGUGACUCCAAGAAUGUGGTT against Wfdc1,inactive: 1.02
8,GGAUGCCUUUGAUGAUGUGTT against 5430425K04Rik,inactive: -2.18
9,GGAGGAGAAAAAUUGUAUUTT against A530053G22Rik,inactive: -0.318
10,GGAUAAGACUUUAGCUUUUTT against Fbxo45,inactive: -0.275
11,ACAAAGUCUGUUCAAGAUCTT against Oc90,inactive: -1.31
12,GGAGCAGUUACAGGAAAUCTT against Cdr2,inactive: -2.47
13,CGGGUUCCCAGGAAUUAAGTT against Col4a6,inactive: -0.397
14,GGGAAGUUCAUUUGUUAAATT against Gosr1,inactive: 1.25
15,CCUACAGGGAAUACGUGUATT against Ttc17,inactive: 0.556
16,GGGAAAAUAACAAAAAGAGTT against Hoxc6,inactive: -0.224
17,GAUGAUGAACGACUGGUUCTT against Olfr285,inactive: -0.333
18,GAAUGAGUUCUGCCCAGUCTT against Lhb,inactive: 0.195
19,GGACAUUGAUGUCAUAGAATT against 2310067E08Rik,inactive: 0.548
20,GGAGAAAUAUGAUGUUCUUTT against Mppe1,inactive: 0.684
21,GGACGAAAUAACAGGCUAATT against Ocil,inactive: -1.94
22,GGUGGCUCAGAAAUCCUAUTT against Rbpsuhl,inactive: 1.91
23,GCUCAGUGAUAAUUAAACGTT against Nudt10,inactive: 0.478
24,GGGCAUCAUGCCUCAUGAATT against AI839550,inactive: 2.08
25,CCUGGCAGUAAAAGAUUGCTT against Ndst3,inactive: 0.0386
26,CGUGUUGGAGUACAAUGAGTT against 1190002L16Rik,inactive: -1.5

# Some values from above.
# z-score with CCAACGCGAACGAGAACUATT against C1qb is entered as inactive: -1.3
# z-score with GGGCCUUCACAAUGUCCUUTT against Brca1 is entered as inactive: -1.64
# z-score with GGAGAAAGGAACUGAAAGUTT against D430026P16Rik is entered as inactive: -0.591
